This is an account of results in patent publication US20050227220A1, “Compositions and Methods for Evaluating and Designing Nuclear Receptor Ligands that Modulate Co-Regulator Affinity” (priority 2002, published 2005).

By UniProt entry, the sequences of proteins in these tests, tags left out. Where a name states a change or a piece, a line headed by the entry shows the natural chain unless it says otherwise. Chains listed by the source or under a name are the forms on record and can include a tag or linker. Residues count along the entry.
CREB binding protein fragment (CBP, residues 57-454) (P45481, form named): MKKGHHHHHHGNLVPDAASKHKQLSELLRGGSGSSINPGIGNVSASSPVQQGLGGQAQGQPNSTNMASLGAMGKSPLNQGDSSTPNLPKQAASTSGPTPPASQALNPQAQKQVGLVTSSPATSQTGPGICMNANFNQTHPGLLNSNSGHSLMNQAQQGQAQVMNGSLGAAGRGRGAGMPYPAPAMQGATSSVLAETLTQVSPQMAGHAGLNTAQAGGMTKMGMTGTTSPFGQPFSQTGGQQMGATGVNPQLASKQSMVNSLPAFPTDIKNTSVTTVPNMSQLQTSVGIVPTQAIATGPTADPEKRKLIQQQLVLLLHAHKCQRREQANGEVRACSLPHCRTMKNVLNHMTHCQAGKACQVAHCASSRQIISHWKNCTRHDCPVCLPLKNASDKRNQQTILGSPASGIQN
UniProt Q92731, residues 257-530: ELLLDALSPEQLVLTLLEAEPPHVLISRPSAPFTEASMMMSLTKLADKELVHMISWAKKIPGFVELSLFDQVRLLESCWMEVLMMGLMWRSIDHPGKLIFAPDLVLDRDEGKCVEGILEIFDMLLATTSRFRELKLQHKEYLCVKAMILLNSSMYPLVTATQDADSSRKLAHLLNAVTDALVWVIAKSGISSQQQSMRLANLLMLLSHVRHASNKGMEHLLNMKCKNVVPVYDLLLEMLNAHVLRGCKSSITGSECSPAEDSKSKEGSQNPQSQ

Where two headings read alike, the source gives them in different places. No constants are given. Whether binding was seen depends on the method and setting. Some results given as binding are weak or reduced against the parent protein; the word gives no strength.

The target of experiment [1] is T1, Fluoroscein-SMRT ID-C peptide.
T1 sequence (peptide, N-terminal fluorescein): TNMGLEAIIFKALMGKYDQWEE
Description: fluorescence polarization. In general terms: Fluorescence polarisation rises when a labelled molecule tumbles more slowly, as on binding a larger partner.

Experiment [2] concerns the target CREB binding protein fragment (CBP, residues 57-454) (UniProt P45481). Description: FRET, fitted factor α (fold change of the receptor-cofactor affinity at saturating ligand), PPAR LBD with CBP (57-454).
Experiment [3] shares this target. Briefly: time-resolved FRET (ratio 665 nm/610 nm) of labeled PPARγ LBD (10 nM per paragraph 52; paragraph 53 prints 10 mM) with CBP (57-454) at 25, 50, 100 and […] nM, with the GW1929 concentration varied.
The target is the same in experiment [4]. Description: FRET, biotinylated LBD and CBP (57-454) on labelled streptavidin, with PPAR ligands.
The target of experiment [5] is T2, Fluoroscein-NCOR ID-C peptide (NCoR amino acids 2251-2275).
T2 sequence (peptide, N-terminal fluorescein): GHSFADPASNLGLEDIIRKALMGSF
Description: fluorescence polarization.

In experiment [6] the target is T1, Fluoroscein-SMRT ID-C peptide. Description: fluorescence polarization. This is another data set of the same source.

Turning to “ERβ ligand binding domain (amino acids 257-530) (from UniProt Q92731 257-530) (receptor)”, the binding entry in experiment [1] is recorded as “binds”.

B1: RXRα ligand binding domain (amino acids 225-462) (receptor, UniProt P19793 225-462, looked up)
chain: SANEDMPVERILEAELAVEPKTETYVEANMGLNPSSPNDPVTNICQAADKQLFTLVEWAKRIPHFSELPLDDQVILLRAGWNELLIASFSHRSIAVKDGILLATGLHVHRNSAHSAGVGAIFDRVLTELVSKMRDMQMDKTELGCLRAIVLFNPDSKGLSNPAEVEALREKVYASLEAYCKHKYPEQPGRFAKLLLRLPALRSIGLKCLEHLFFFKLIGDTPIDTFLMEMLEAPHQMT
notes: range 225-462; Biotinylated for FRET; also called RXRα LBD; not shown: His-tag
In the case of B1, the binding entry in experiment [1] was “binds”.

B2: human PPARγ ligand binding domain (amino acids 206-477) (receptor)
chain: MKKGHHHHHHGPESADLRALAKHLYDSYIKSFPLTKAKARAILTGKTTDKSPFVIYDMNSLMMGEDKIKFKHITPLQEQSKEVAIRIFQGCQFRSVEAVQEITEYAKSIPGFVNLDLNDQVTLLKYGVHEIIYTMLASLMNKDGVLISEGQGFMTREFLKSLRKPFGDFMEPKFEFAVKFNALELDDSDLAIFIAVIILSGDRPGLLNVKPIEDIQDNLLQALELQLKLNHPESSQLFAKLLQKMTDLRQIVTEHVQLLQVIKKTETDMSLHPLLQEIYKDLY
notes: range 206-477; placed at the N-terminus here; Biotinylated for FRET; also called PPARγ LBD
Turning to B2, the binding result in experiment [2], in experiment [3], in experiment [1] and in experiment [4] was “binds” in each case.

B3: TRβ ligand binding domain (receptor, UniProt P10828 202-461, looked up)
chain: EELQKSIGHKPEPTDEEWELIKTVTEAHVATNAQGSHWKQKRKFLPEDIGQAPIVNAPEGGKVDLEAFSHFTKIITPAITRVVDFAKKLPMFCELPCEDQIILLKGCCMEIMSLRAAVRYDPESETLTLNGEMAVTRGQLKNGGLGVVSDAIFDLGMSLSSFNLDDTEVALLQAVLLMSSDRPGLACVERIEKYQDSFLLAFEHYINYRKHHVTHFWPKLLMKVTDLRMIGACHASRFLHMKVECPTELFPPLFLEVFED
notes: also called Thyroid Receptor LBD; TRβ LBD
Consider B3, for which the binding entry in experiment [5] and in experiment [6] was “binds” throughout.

B4: human PPARα ligand binding domain (amino acids 192-468) (receptor)
chain: MKKGHHHHHHGEHDIEDSETADLKSLAKRIYEAYLKNFNMNKVKARVILSGKASNNPPFVIHDMETLCMAEKTLVAKLVANGIQNKEAEVRIFHCCQCTSVETVTELTEFAKAIPGFANLDLNDQVTLLKYGVYEAIFAMLSSVMNKDGMLVAYGNGFITREFLKSLRKPFCDIMEPKFDFAMKFNALELDDSDISLFVAAIICCGDRPGLLNVGHIEKMQEGIVHVLRLHLQSNHPDDIFLFPKLLQKMADLRQLVTEHAQLVQIIKKTESDAALHPLLQEIYRDMY
Turning to B4, the binding result in experiment [2], in experiment [6] and in experiment [4] was “binds” each time.

B5: RARα ligand binding domain (amino acids 146-432) (receptor, UniProt P10276 146-432, looked up, not shown: small tags and cut ends)
chain: QKCFEVGMSKESVRNDRNKKKKEVPKPECSESYTLTPEVGELIEKVRKAHQETFPALCQLGKYTTNNSSEQRVSLDIDLWDKFSELSTKCIIKTVEFAKQLPGFTTLTIADQITLLKAACLDILILRICTRYTPEQDTMTFSDGLTLNRTQMHNAGFGPLTDLVFAFANQLLPLEMDDAETGLLSAICLICGDRQDLEQPDRVDMLQEPLLEALKVYVRKRRPSRPHMFPKMLMKITDLRSISAKGAERVITLKMEIPGSMPPLIQEMLENSEGLDTLSGQPGGGGR
For B5, the binding entry in experiment [6] was “binds”.
